B1: Matrix-remodeling-associated protein 8 (protein, UniProt Q9BRK3 20-442, looked up)
Matrix remodeling-associated …: VLLHSGSSVPAAAGSSVVSESAVSWEAGARAVLRCQSPRMVWTQDRLHDRQRVLHWDLRGPGGGPARRLLDLYSAGEQRVYEARDRGRLELSASAFDDGNFSLLIRAVEETDAGLYTCNLHHHYCHLYESLAVRLEVTDGPPATPAYWDGEKEVLAVARGAPALLTCVNRGHVWTDRHVEEAQQVVHWDRQPPGVPHDRADRLLDLYASGERRAYGPLFLRDRVAVGADAFERGDFSLRIEPLEVADEGTYSCHLHHHYCGLHERRVFHLTVAEPHAEPPPRGSPGNGSSHSGAPGPDPTLARGHNVINVIVPESRAHFFQQLGYVLATLLLFILLLVTVLLAARRRRGGYEYSDQKSGKSKGKDVNLAEFAVAAGDQMLYRSEDIQLDYKNNILKERAELAHSPLPAKYIDLDKGFRKENCK
B2: CMRF35-like molecule 1 (protein, UniProt Q8TDQ1 20-290, looked up)
CMRF35-like molecule 1: TQITGPTTVNGLERGSLTVQCVYRSGWETYLKWWCRGAIWRDCKILVKTSGSEQEVKRDRVSIKDNQKNRTFTVTMEDLMKTDADTYWCGIEKTGNDLGVTVQVTIDPAPVTQEETSSSPTLTGHHLDNRHKLLKLSVLLPLIFTILLLLLVAASLLAWRMMKYQQKAAGMSPEQVLQPLEGDLCYADLTLQLAGTSPQKATTKLSSAQVDQVEVEYVTMASLPKEDISYASLTLGAEDQEPTYCNMGHLSSHLPGRGPEEPTEYSTISRP
B3: Neprilysin (protein, UniProt P08473 2-750, looked up)
Neprilysin: GKSESQMDITDINTPKPKKKQRWTPLEISLSVLVLLLTIIAVTMIALYATYDDGICKSSDCIKSAARLIQNMDATTEPCTDFFKYACGGWLKRNVIPETSSRYGNFDILRDELEVVLKDVLQEPKTEDIVAVQKAKALYRSCINESAIDSRGGEPLLKLLPDIYGWPVATENWEQKYGASWTAEKAIAQLNSKYGKKVLINLFVGTDDKNSVNHVIHIDQPRLGLPSRDYYECTGIYKEACTAYVDFMISVARLIRQEERLPIDENQLALEMNKVMELEKEIANATAKPEDRNDPMLLYNKMTLAQIQNNFSLEINGKPFSWLNFTNEIMSTVNISITNEEDVVVYAPEYLTKLKPILTKYSARDLQNLMSWRFIMDLVSSLSRTYKESRNAFRKALYGTTSETATWRRCANYVNGNMENAVGRLYVEAAFAGESKHVVEDLIAQIREVFIQTLDDLTWMDAETKKRAEEKALAIKERIGYPDDIVSNDNKLNNEYLELNYKEDEYFENIIQNLKFSQSKQLKKLREKVDKDEWISGAAVVNAFYSSGRNQIVFPAGILQPPFFSAQQSNSLNYGGIGMVIGHEITHGFDDNGRNFNKDGDLVDWWTQQSASNFKEQSQCMVYQYGNFSWDLAGGQHLNGINTLGENIADNGGLGQAYRAYQNYIKKNGEEKLLPGLDLNHKQLFFLNFAQVWCGTYRPEYAVNSIKTDVHSPGNFRIIGTLQNSAEFSEAFHCRKNSYMNPEKKCRVW
B4: Cytosolic non-specific dipeptidase (protein, UniProt Q96KP4 2-475, looked up)
Cytosolic non-specific …: AALTTLFKYIDENQDRYIKKLAKWVAIQSVSAWPEKRGEIRRMMEVAAADVKQLGGSVELVDIGKQKLPDGSEIPLPPILLGRLGSDPQKKTVCIYGHLDVQPAALEDGWDSEPFTLVERDGKLYGRGSTDDKGPVAGWINALEAYQKTGQEIPVNVRFCLEGMEESGSEGLDELIFARKDTFFKDVDYVCISDNYWLGKKKPCITYGLRGICYFFIEVECSNKDLHSGVYGGSVHEAMTDLILLMGSLVDKRGNILIPGINEAVAAVTEEEHKLYDDIDFDIEEFAKDVGAQILLHSHKKDILMHRWRYPSLSLHGIEGAFSGSGAKTVIPRKVVGKFSIRLVPNMTPEVVGEQVTSYLTKKFAELRSPNEFKVYMGHGGKPWVSDFSHPHYLAGRRAMKTVFGVEPDLTREGGSIPVTLTFQEATGKNVMLLPVGSADDGAHSQNEKLNRYNYIEGTKMLAAYLYEVSQLKD
B5: Ephrin type-B receptor 4 (protein, UniProt P54760 16-987, looked up)
Ephrin type-B receptor 4: LEETLLNTKLETADLKWVTFPQVDGQWEELSGLDEEQHSVRTYEVCDVQRAPGQAHWLRTGWVPRRGAVHVYATLRFTMLECLSLPRAGRSCKETFTVFYYESDADTATALTPAWMENPYIKVDTVAAEHLTRKRPGAEATGKVNVKTLRLGPLSKAGFYLAFQDQGACMALLSLHLFYKKCAQLTVNLTRFPETVPRELVVPVAGSCVVDAVPAPGPSPSLYCREDGQWAEQPVTGCSCAPGFEAAEGNTKCRACAQGTFKPLSGEGSCQPCPANSHSNTIGSAVCQCRVGYFRARTDPRGAPCTTPPSAPRSVVSRLNGSSLHLEWSAPLESGGREDLTYALRCRECRPGGSCAPCGGDLTFDPGPRDLVEPWVVVRGLRPDFTYTFEVTALNGVSSLATGPVPFEPVNVTTDREVPPAVSDIRVTRSSPSSLSLAWAVPRAPSGAVLDYEVKYHEKGAEGPSSVRFLKTSENRAELRGLKRGASYLVQVRARSEAGYGPFGQEHHSQTQLDESEGWREQLALIAGTAVVGVVLVLVVIVVAVLCLRKQSNGREAEYSDKHGQYLIGHGTKVYIDPFTYEDPNEAVREFAKEIDVSYVKIEEVIGAGEFGEVCRGRLKAPGKKESCVAIKTLKGGYTERQRREFLSEASIMGQFEHPNIIRLEGVVTNSMPVMILTEFMENGALDSFLRLNDGQFTVIQLVGMLRGIASGMRYLAEMSYVHRDLAARNILVNSNLVCKVSDFGLSRFLEENSSDPTYTSSLGGKIPIRWTAPEAIAFRKFTSASDAWSYGIVMWEVMSFGERPYWDMSNQDVINAIEQDYRLPPPPDCPTSLHQLMLDCWQKDRNARPRFPQVVSALDKMIRNPASLKIVARENGGASHPLLDQRQPHYSAFGSVGEWLRAIKMGRYEESFAAAGFGSFELVSQISAEDLLRIGVTLAGHQKKILASVQHMKSQAKPGTPGGTGGPAPQY
B6: Fructose-1,6-bisphosphatase 1 (protein, UniProt P09467 2-338, looked up)
Fructose-1,6-bisphosphatase 1: ADQAPFDTDVNTLTRFVMEEGRKARGTGELTQLLNSLCTAVKAISSAVRKAGIAHLYGIAGSTNVTGDQVKKLDVLSNDLVMNMLKSSFATCVLVSEEDKHAIIVEPEKRGKYVVCFDPLDGSSNIDCLVSVGTIFGIYRKKSTDEPSEKDALQPGRNLVAAGYALYGSATMLVLAMDCGVNCFMLDPAIGEFILVDKDVKIKKKGKIYSLNEGYARDFDPAVTEYIQRKKFPPDNSAPYGARYVGSMVADVHRTLVYGGIFLYPANKKSPNGKLRLLYECNPMAYVMEKAGGMATTGKEAVLDVIPTDIHQRAPVILGSPDDVLEFLKVYEKHSAQ
B7: Peroxiredoxin-6 (protein, UniProt P30041 2-224, looked up)
Peroxiredoxin-6: PGGLLLGDVAPNFEANTTVGRIRFHDFLGDSWGILFSHPRDFTPVCTTELGRAAKLAPEFAKRNVKLIALSIDSVEDHLAWSKDINAYNCEEPTEKLPFPIIDDRNRELAILLGMLDPAEKDEKGMPVTARVVFVFGPDKKLKLSILYPATTGRNFDEILRVVISLQLTAEKRVATPVDWKDGDSVMVLPTIPEEEAKKLFPKGVFTKELPSGKKYLRYTPQP
B8: 5′(3′)-deoxyribonucleotidase, cytosolic type (protein, UniProt Q8TCD5 1-201, looked up)
5'(3')-deoxyribonucleotidase, …: MARSVRVLVDMDGVLADFEAGLLRGFRRRFPEEPHVPLEQRRGFLAREQYRALRPDLADKVASVYEAPGFFLDLEPIPGALDAVREMNDLPDTQVFICTSPLLKYHHCVGEKYRWVEQHLGPQFVERIILTRDKTVVLGDLLIDDKDTVRGQEETPSWEHILFTCCHNRHLVLPPTRRRLLSWSDNWREILDSKRGAAQRE
B9: Inter-alpha-trypsin inhibitor heavy chain H1 (protein, UniProt P19827 35-672, looked up)
Inter-alpha-trypsin inhibitor …: SKSSEKRQAVDTAVDGVFIRSLKVNCKVTSRFAHYVVTSQVVNTANEAREVAFDLEIPKTAFISDFAVTADGNAFIGDIKDKVTAWKQYRKAAISGENAGLVRASGRTMEQFTIHLTVNPQSKVTFQLTYEEVLKRNHMQYEIVIKVKPKQLVHHFEIDVDIFEPQGISKLDAQASFLPKELAAQTIKKSFSGKKGHVLFRPTVSQQQSCPTCSTSLLNGHFKVTYDVSRDKICDLLVANNHFAHFFAPQNLTNMNKNVVFVIDISGSMRGQKVKQTKEALLKILGDMQPGDYFDLVLFGTRVQSWKGSLVQASEANLQAAQDFVRGFSLDEATNLNGGLLRGIEILNQVQESLPELSNHASILIMLTDGDPTEGVTDRSQILKNVRNAIRGRFPLYNLGFGHNVDFNFLEVMSMENNGRAQRIYEDHDATQQLQGFYSQVAKPLLVDVDLQYPQDAVLALTQNHHKQYYEGSEIVVAGRIADNKQSSFKADVQAHGEGQEFSITCLVDEEEMKKLLRERGHMLENHVERLWAYLTIQELLAKRMKVDREERANLSSQALQMSLDYGFVTPLTSMSIRGMADQDGLKPTIDKPSEDSPPLEMLGPRRTFVLSALQPSPTHSSSNTQRLPDRVTGVDTD
B10: D-dopachrome decarboxylase (protein, UniProt P30046 2-118, looked up)
D-dopachrome decarboxylase: PFLELDTNLPANRVPAGLEKRLCAAAASILGKPADRVNVTVRPGLAMALSGSTEPCAQLSISSIGVVGTAEDNRSHSAHFFEFLTKELALGQDRILIRFFPLESWQIGKIGTVMTFL

assay: RRT study: LC-MS/MS urinary proteomics, AKI after cardiac surgery, RRT vs No RRT; design: species or system human; conditions: direction of urinary abundance, patients who did vs did not require RRT/dialysis

Up or Down, Up:
B1
B2
B3
B4
B5
B6
B7
B8
B9
B10
